Source: patent US20040126856A1, “Factor ixa: factor Vllla interaction and methods therefor” (priority 2004, published 2004)
For some assays here: At least one read-out could not be matched to a standard name with certainty. For some assays here: For at least one compound, name, drawing or mass did not settle the structure. No end group written: not given here.

Sequences of proteins named here, by UniProt entry; tags and fusion partners are left off. Residues count along the entry.
UniProt P00742, 41-179 limits assumed: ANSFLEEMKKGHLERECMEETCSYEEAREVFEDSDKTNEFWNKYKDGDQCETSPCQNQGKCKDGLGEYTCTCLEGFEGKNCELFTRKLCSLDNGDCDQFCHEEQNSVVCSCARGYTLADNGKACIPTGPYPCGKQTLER
UniProt P00742, 183-488 limits assumed: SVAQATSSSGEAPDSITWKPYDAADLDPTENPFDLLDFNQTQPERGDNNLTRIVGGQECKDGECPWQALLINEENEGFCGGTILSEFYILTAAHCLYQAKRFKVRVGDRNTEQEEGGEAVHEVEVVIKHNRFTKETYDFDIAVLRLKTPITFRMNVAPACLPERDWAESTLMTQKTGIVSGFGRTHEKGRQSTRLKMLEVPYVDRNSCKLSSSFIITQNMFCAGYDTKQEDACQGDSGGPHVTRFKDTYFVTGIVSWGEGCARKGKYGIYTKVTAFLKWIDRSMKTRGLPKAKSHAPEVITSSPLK
UniProt P00740, 227-461 limits assumed: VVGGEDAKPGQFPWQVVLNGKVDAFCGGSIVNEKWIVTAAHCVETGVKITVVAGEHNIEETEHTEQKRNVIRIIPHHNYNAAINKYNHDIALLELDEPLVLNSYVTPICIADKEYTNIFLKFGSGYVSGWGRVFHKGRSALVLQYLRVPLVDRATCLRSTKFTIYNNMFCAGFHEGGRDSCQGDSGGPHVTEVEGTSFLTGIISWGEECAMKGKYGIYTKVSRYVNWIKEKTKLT
UniProt P00740, 47-191 limits assumed: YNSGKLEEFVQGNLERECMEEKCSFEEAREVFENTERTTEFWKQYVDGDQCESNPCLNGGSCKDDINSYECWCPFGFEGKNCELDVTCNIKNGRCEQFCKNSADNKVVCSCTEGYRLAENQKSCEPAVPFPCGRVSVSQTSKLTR

Tests used:
[1] = molecular target: T1, factor X (Homo sapiens, UniProt P00742); experiment: Activation of factor X by factor IXa proteins in the presence of only Ca2+ and PL (absence of factor VIIIa); format: biochemical; settings: 20 nM factor IXa, 5 mM CaCl2, absence of factor VIIIa
T1 construct: Normal plasma factor IX (IXNP) and factor X was isolated as previously described; from tissue; host or cells: normal plasma
Method: Activation of Factor X by Each Factor IXa Protein in the Presence of Only Ca^2+ and PL.
For these studies, each factor IX was activated with factor XIa/Ca^2+ as described above. For factor X activation studies, the concentration of factor IXa was kept at 20 nM and the buffer used was TBS/BSA (TBS with […] BSA) containing 5 mM CaCl2. The concentrations of PL used were 10, 25, 50, and 100 μM in different sets of experiments. The concentration of factor X at each PL concentration ranged from 25 nM to 3 μM. The activations were carried out for 5-15 min and the amount of factor Xa generated was measured by hydrolysis of S-2222 as described previously (Mather and Bajaj, 1999; Mather et al., 1997). The Km and kcat values were obtained using the program GraFit from Erithacus Software.

[2] = molecular target: IXaNP (Homo sapiens, UniProt P00740); settings: read-out: IC50 for inhibition of the A2 subunit enhancement of IXaNP activity; 240 nM A2 subunit; Fay and Koshibu, 1998; cited from earlier work

IXaR333Q: activated factor IX point mutant in which Arg333 is replaced by Gln
kcat/Km ([1]; PL 10 μM): 1800 M⁻¹ s⁻¹ | kcat/Km ([1]; PL 25 μM): 1670 M⁻¹ s⁻¹ | kcat/Km ([1]; PL 50 μM): 2170 M⁻¹ s⁻¹ | kcat/Km ([1]; PL 100 μM): 1100 M⁻¹ s⁻¹

SVDQRGNQ [A2 558-565 peptide]
IC50 [2]: ~40 µM
